According to the supplement of paper PMC6078165:

Tested on: MDAMB231
Assay: relative JC-1 red fluorescence (viability) vs pre-drug, coculture with fibroblast (fraction); higher = more viable cancer cells
Experimental: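 JC-1 labelled TNBC cells cocultured 1:1 (1,500 cells each) with CellTrace Violet stained primary or stromal fibroblasts in 384-well plates in FluoroBrite medium, treated with one of 42 anticancer drugs at 0.1, 1, 10 or 100 uM. JC-1 red fluorescence (mitochondrial integrity in cancer cells only) was read by plate reader every 8 h for 72 h. Values are normalised to each well's pre-drug value. The stock of one drug was tenfold lower, so its dose labels may be too high.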

CCCCCOC(=O)Nc1nc(=O)n([C@@H]2O[C@H](C)[C@@H](O)[C@H]2O)cc1F [Capecitabine]
relative JC-1 red fluorescence
Details | 8 h | 16 h | 24 h | 32 h | 40 h | 48 h | 56 h | 64 h | 72 h
0.1 µM, coculture fibroblast: C12385 | 0.7701 | 0.7166 | 0.616 | 0.6169 | 0.552 | 0.5132 | 0.466 | 0.454 | 0.431
0.1 µM, coculture fibroblast: H6013 | 0.889 | 0.8431 | 0.795 | 0.781 | 0.733 | 0.714 | 0.694 | 0.658 | 0.61
0.1 µM, coculture fibroblast: H6019 | 0.786 | 0.765 | 0.652 | 0.667 | 0.633 | 0.606 | 0.556 | 0.535 | 0.492
0.1 µM, coculture fibroblast: H6076 | 0.904 | 0.819 | 0.783 | 0.744 | 0.711 | 0.675 | 0.642 | 0.621 | 0.611
0.1 µM, coculture fibroblast: H6231 | 0.94 | 0.832 | 0.767 | 0.711 | 0.649 | 0.606 | 0.56 | 0.529 | 0.5
0.1 µM, coculture fibroblast: HADF | 0.8887 | 0.8521 | 0.804 | 0.7644 | 0.728 | 0.677 | 0.665 | 0.652 | 0.605
0.1 µM, coculture fibroblast: HCFa | 0.9016 | 0.8463 | 0.81 | 0.774 | 0.718 | 0.665 | 0.635 | 0.6 | 0.55
0.1 µM, coculture fibroblast: HCPF | 0.884 | 0.7748 | 0.71 | 0.67 | 0.623 | 0.583 | 0.542 | 0.515 | 0.496
0.1 µM, coculture fibroblast: HHSteC | 0.86495 | 0.811 | 0.749 | 0.691 | 0.645 | 0.613 | 0.564 | 0.528 | 0.487
0.1 µM, coculture fibroblast: HMF | 0.893 | 0.815 | 0.747 | 0.689 | 0.635 | 0.5806 | 0.541 | 0.516 | 0.497
0.1 µM, coculture fibroblast: HPFa | 0.949 | 0.89 | 0.841 | 0.772 | 0.73 | 0.682 | 0.624 | 0.583 | 0.516
0.1 µM, coculture fibroblast: HUF | 0.849 | 0.691 | 0.697 | 0.572 | 0.51 | 0.48 | 0.434 | 0.429 | 0.405
0.1 µM, coculture fibroblast: Hs5 | 0.877 | 0.7936 | 0.721 | 0.6707 | 0.6229 | 0.5622 | 0.529 | 0.49195 | 0.471
0.1 µM, coculture fibroblast: Hs27A | 0.8737 | 0.785 | 0.735 | 0.698 | 0.631 | 0.544 | 0.562 | 0.534 | 0.487
0.1 µM, coculture fibroblast: Hs343T | 0.881 | 0.744 | 0.669 | 0.616 | 0.554 | 0.497 | 0.436 | 0.406 | 0.381
0.1 µM, coculture fibroblast: WS1 | 0.721 | 0.643 | 0.596 | 0.518 | 0.466 | 0.438 | 0.393 | 0.39 | 0.368
1 µM, coculture fibroblast: C12385 | 0.778 | 0.6836 | 0.739 | 0.635 | 0.58 | 0.564 | 0.532 | 0.544 | 0.534
1 µM, coculture fibroblast: H6013 | 0.916 | 0.829 | 0.7834 | 0.7611 | 0.7331 | 0.7234 | 0.689 | 0.65997 | 0.61
1 µM, coculture fibroblast: H6019 | 0.751 | 0.64 | 0.639 | 0.585 | 0.54 | 0.542 | 0.506 | 0.504 | 0.47
1 µM, coculture fibroblast: H6076 | 0.8237 | 0.735 | 0.6901 | 0.666 | 0.629 | 0.585 | 0.562 | 0.557 | 0.544
1 µM, coculture fibroblast: H6231 | 0.8843 | 0.792 | 0.702 | 0.6614 | 0.612 | 0.573 | 0.5292 | 0.522 | 0.497
1 µM, coculture fibroblast: HADF | 0.907 | 0.8221 | 0.77291 | 0.73947 | 0.7058 | 0.679 | 0.647 | 0.643 | 0.593
1 µM, coculture fibroblast: HCFa | 0.901 | 0.823 | 0.784 | 0.741 | 0.6856 | 0.6399 | 0.597 | 0.569 | 0.514
1 µM, coculture fibroblast: HCPF | 0.871 | 0.748 | 0.704 | 0.667 | 0.61 | 0.564 | 0.532 | 0.50492 | 0.48743
1 µM, coculture fibroblast: HHSteC | 0.9149 | 0.838 | 0.786 | 0.742 | 0.696 | 0.662 | 0.612 | 0.594 | 0.552
1 µM, coculture fibroblast: HMF | 0.885 | 0.7896 | 0.72 | 0.676 | 0.626 | 0.588 | 0.543 | 0.519 | 0.503
1 µM, coculture fibroblast: HPFa | 0.9381 | 0.8647 | 0.813 | 0.749 | 0.713 | 0.67 | 0.614 | 0.587 | 0.521
1 µM, coculture fibroblast: HUF | 0.844 | 0.67239 | 0.723 | 0.591 | 0.5298 | 0.528 | 0.483 | 0.48 | 0.467
1 µM, coculture fibroblast: Hs5 | 0.896 | 0.777 | 0.727 | 0.681 | 0.633 | 0.578 | 0.538 | 0.506 | 0.48
1 µM, coculture fibroblast: Hs27A | 0.837 | 0.777 | 0.733 | 0.703 | 0.655 | 0.617 | 0.598 | 0.582 | 0.517
1 µM, coculture fibroblast: Hs343T | 0.858 | 0.749 | 0.677 | 0.623 | 0.572 | 0.525 | 0.474 | 0.453 | 0.426
1 µM, coculture fibroblast: WS1 | 0.7844 | 0.676 | 0.67 | 0.605 | 0.564 | 0.544 | 0.502 | 0.489 | 0.466

The reference is the same well before dosing, and untreated signal decays as well.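 Fibroblast labels denote human fibroblasts, mainly primary ones from uterus (C12385, HUF), lung (H6013), bone (Hs27A), adrenal (HADF) and skin (WS1), plus mammary HMF and breast cancer-associated Hs343T. Cancer cells are basal-like or mesenchymal-like triple-negative breast cancer lines. A hit is a response shift exceeding 3x replicate standard deviation. The tissue of the other fibroblasts is not given here.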
